Measured data: PubChem BioAssay AID1259254 (NCATS, 2017)
Aim: 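Genome-wide screen for genes that prevent DNA re-replication in cancer cells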 (primary screen). Cell system: human HCT116 colorectal cancer cells. Reagents: single siRNA against human genes. Duration: 3 days. Detection: 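Nuclei stained with Hoechst and imaged; cell-cycle phase assigned by DNA content; G2 share scaled per plate, non-targeting siRNA 0%, GMNN siRNA 100%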. Scale: G2 robust z-score and G2 cells, % of GMNN control: higher = more G2 cells, more excess DNA replication; raw share of cells in G2: higher = larger share of cells with G2 DNA content. Active means: 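An siRNA counts as active if its G2 robust z-score lies at least 5 MADs above the screen median; here such calls match roughly 38% of GMNN control or more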.
This is one part, drawn at random, of about 59,000 reagents. Of all reagents, about 1,550 (2.6%) got an active call. 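G2 share is only a proxy for re-replication; each gene was hit by three separate siRNAs, and active genes were retested.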 Raw values are not corrected between plates. A number with no mark means an inactive call. Reagents against one gene are numbered here. Not stated in the record: the amount of reagent.

target | siRNA no. | G2 robust z-score | G2 cells, % of GMNN control | raw share of cells in G2 (%)
NRBP2 | 1 | 1.17 | 11.2 | 7.26
NRBP2 | 2 | -1.21 | -5.52 | 3.18
NRBP2 | 3 | 3.5 | 27.6 | 14.2
RPS10P29 | 1 | 0.812 | 8.68 | 8.36
RPS10P29 | 2 | 1.54 | 13.8 | 8.51
RPS10P29 | 3 | -0.668 | -1.73 | 2.65
CACNB2 | 1 | 0.737 | 8.16 | 8.26
CACNB2 | 2 | 0.268 | 4.86 | 6.42
CACNB2 | 3 | -1.05 | -4.42 | 2.65
SLC45A2 | 1 | 0.492 | 6.43 | 6.31
SLC45A2 | 2 | 0.273 | 4.89 | 6.4
SLC45A2 | 3 | 1.69 | 14.9 | 7.94
TRMT5 | 1 | -0.994 | -4.03 | 3.98
TRMT5 | 2 | 0.011 | 3.04 | 5.42
TRMT5 | 3 | 3.08 | 24.7 | 13.2
DBN1 | 1 | -0.602 | -1.27 | 4.71
DBN1 | 2 | -0.937 | -3.63 | 2.76
DBN1 | 3 | 0.444 | 6.09 | 5.91
EDF1 | 1 | 0.546 | 6.81 | 7.63
EDF1 | 2 | 4.48 | 34.5 | 17.4
EDF1 | 3 | -0.672 | -1.76 | 4.08
LOC727820 (retired record) | 1 | 0.294 | 5.04 | 5.45
LOC727820 (retired record) | 2 | 0.593 | 7.14 | 5.39
LOC727820 (retired record) | 3 | -0.859 | -3.08 | 2.44
LINC01100 | 1 | 1.86 | 16.1 | 9.52
LINC01100 | 2 | 1.09 | 10.6 | 7.84
LINC01100 | 3 | 0.053 | 3.34 | 4.88
LINGO4 | 1 | -0.459 | -0.26 | 4.86
LINGO4 | 2 | 1.11 | 10.8 | 10.6
LINGO4 | 3 | -0.392 | 0.208 | 4.36
RPL23 | 1 | 4.84 | 37 | 22
RPL23 | 2 | 3 | 24.1 | 14
RPL23 | 3 | 7.63 (active) | 56.6 | 24
SYCN | 1 | -0.759 | -2.38 | 3.17
SYCN | 2 | -0.098 | 2.28 | 4.26
SYCN | 3 | 1.8 | 15.6 | 10.5
OSBPL6 | 1 | -0.631 | -1.47 | 3.5
OSBPL6 | 2 | 0.425 | 5.95 | 5.1
OSBPL6 | 3 | 0.000115 | 2.97 | 2.69
PC | 1 | 0.127 | 3.86 | 6.66
PC | 2 | 1.18 | 11.3 | 9.32
PC | 3 | -0.849 | -3.01 | 2.17
SEC14L6 | 1 | -0.416 | 0.0372 | 4.11
SEC14L6 | 2 | -0.213 | 1.47 | 3.72
SEC14L6 | 3 | 5.4 (active) | 40.9 | 18.1
NFE4 | 1 | -0.339 | 0.585 | 4.58
NFE4 | 2 | -0.706 | -2 | 3.5
NFE4 | 3 | 1.33 | 12.3 | 6.93
